Values of other authors, collected in US20160024130.
Numbering of substitutions follows the chain as printed. Construct, isoform or probe ends are uncertain for at least one entry. For some assays here: Where a protein sequence is shown, tags need not be part of it.

Amino acid sequences for entries named in this document (tags omitted). A change or cut given only in a name is not applied to a line headed by its entry.
UniProt Q01543: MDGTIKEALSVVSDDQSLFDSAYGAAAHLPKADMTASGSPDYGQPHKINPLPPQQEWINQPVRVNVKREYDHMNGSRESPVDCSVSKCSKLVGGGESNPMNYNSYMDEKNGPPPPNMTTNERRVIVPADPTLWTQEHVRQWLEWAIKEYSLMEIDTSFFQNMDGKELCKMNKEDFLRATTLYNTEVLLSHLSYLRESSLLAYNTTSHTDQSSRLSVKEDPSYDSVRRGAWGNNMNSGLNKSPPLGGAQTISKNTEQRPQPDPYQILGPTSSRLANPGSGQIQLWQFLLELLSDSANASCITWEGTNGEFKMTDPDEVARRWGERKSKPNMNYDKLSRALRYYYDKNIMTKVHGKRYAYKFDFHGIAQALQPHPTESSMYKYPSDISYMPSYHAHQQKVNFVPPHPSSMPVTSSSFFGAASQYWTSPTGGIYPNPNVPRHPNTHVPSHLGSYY

What was measured:
ERG DNA binding domain = target: T1, ERG DNA binding domain (UniProt P11308); experiment: structure; conditions: CITED Regan et al. 2013 crystal structure; purified recombinant protein; only the motif is given
T1 sequence (limits assumed): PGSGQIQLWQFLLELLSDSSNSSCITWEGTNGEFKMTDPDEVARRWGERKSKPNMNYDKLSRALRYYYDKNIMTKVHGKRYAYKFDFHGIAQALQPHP

EWS-FLI1 = experiment: binding assay; conditions: data not shown; method not stated; purified recombinant protein; only the motif is given
[1] = target: T2, FLI1 DNA binding domain (several constructs, exact boundaries not stated) (UniProt Q01543); experiment: binding assay; conditions: data not shown; method not stated; purified recombinant protein; only the motif is given
T2 sequence (limits assumed): T1 sequence (limits assumed) with S20A, S22A

“GGAA (double strand) [ETS consensus DNA with central GGAA (only core printed)]”: binds (ERG DNA binding domain); binds (EWS-FLI1); binds [1].

“GGAA (double strand) [GGAA repeat DNA (only repeat unit printed)]”: binds (EWS-FLI1); binds [1].
